Data from PMC10112521, “High-throughput AR dimerization assay identifies androgen disrupting chemicals and metabolites” (Frontiers in Toxicology, 2023).

Test system: AR2 cells (HepG2-AR2)
Assay: Alamar Blue (resazurin) post hoc cell viability / cytotoxicity assay in AR2 cells
Conditions: spid Viability; sheet antagonist_fits; 0 where win_model is Constant

Abamectin
hill_gw (Hill model slope): 0.9681
